Experimental data reported in PubChem BioAssay AID493014 (National Center for Advancing Translational Sciences (NCATS), 2011).
This is one part of the list. The main result of the screen is listed elsewhere. These columns were measured beside it and carry no call. Most of these compounds were active or inconclusive in the main read-out, so they are no random draw. The note in brackets gives the kind of curve behind each potency; many fits are weak.

Test: qHTS Assay to Find Inhibitors of Chronic Active B-Cell Receptor Signaling
Conditions: ABC-DLBCL IkBa-CBG/CBR reporter, luminescence ratio (green luciferase fused to IkBa over red control in TMD8 lymphoma cells), 4 h
Method in brief: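 Doxycycline induced both beetle luciferases in TMD8 lymphoma cells; IKK-driven degradation limits the IkappaBalpha-fused green signal, while red luminescence normalises for cell number and nonspecific effects. Compounds tested up to 46 uM, 4 hrs.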

[1] = measured here: CBR red luminescence, cell number
[2] = measured here: IkBa-CBG green luminescence

In the case of C/C=C/c1ccc(OCC(=O)NCc2ccccc2OC)c(OC)c1, the AC50 [1] is reported as 12.6 µM [rising, partial curve].
With NC(=O)CC(NC(=O)Cc1cccc2ccccc12)c1ccc(NC2CC3CCC2C3)c([N+](=O)[O-])c1 (stereo unspecified) the AC50 [1] was 2.82 µM [rising, partial curve].
In the case of O=C(c1cc2ccccc2oc1=O)N(Cc1ccc(F)cc1)C1CCS(=O)(=O)C1 (stereo unspecified), the AC50 [1] is reported as 11.2 µM [falling, partial curve].
In the case of Cc1cc(C(=O)NC(=S)Nc2ccccc2N2CCOCC2)ccc1[N+](=O)[O-], the AC50 [1] is reported as 0.366 µM [rising, full curve, poor fit].
With Cc1cccc2sc(NC(=O)CSc3cn[nH]n3)nc12 the AC50 [1] was 8.91 µM [falling, partial curve].
In the case of Cc1nc2ccccc2c(=O)n1/N=C/c1ccc([N+](=O)[O-])o1, the AC50 [1] is reported as 12.6 µM [falling, single point].
With O=C(CCCN1C(=O)c2ccccc2C1=O)Nc1nnc(C2CC2)s1 the AC50 [1] was 7.94 µM [rising, partial curve, poor fit].
In the case of O=C(Nc1cc(Cl)cc(Cl)c1)N1CCCN(Cc2ccccc2)CC1, the AC50 [1] is reported as 1.58 µM [falling, full curve, poor fit].
With Cc1nc(N/N=C\c2ccc3c(c2)OCO3)sc1C the AC50 [1] was 11.2 µM [rising, partial curve].
With COc1ccc(-n2c(C)c(C)c3c(NCCCO)ncnc32)cc1 the AC50 [1] was 35.5 µM [falling, single point].
In the case of Cc1ccccc1C(=O)NNC(=S)NC(=O)c1cccnc1, the AC50 [1] is reported as 23.1 µM [falling, single point].
In the case of CCCc1cc(=O)n2[nH]c(-c3ccc(C)cc3)cc2n1, the AC50 [1] is reported as 8.91 µM [falling, partial curve].
In the case of N#Cc1nc(Cc2cccc3ccccc23)oc1NCc1ccc(F)cc1, the AC50 [1] is reported as 29.1 µM [falling, single point].
With Fc1ccc(OCc2nc(-c3ccc(Br)o3)no2)c(F)c1 the AC50 [1] was 1.78 µM [rising, full curve, poor fit].
In the case of CCOC(=O)c1c(-c2ccc(OC)c(OC)c2)csc1NC(=O)C1CCCO1 (stereo unspecified), the AC50 [1] is reported as 14.1 µM [falling, single point].
For O=C(CSc1nnc(-c2ccccc2O)o1)N1CCCCC1, the AC50 [1] was 35.5 µM [falling, single point].
For COc1cc(OC)cc(C(=O)OCC(=O)NCc2ccco2)c1, the AC50 [1] was 29.1 µM [rising, single point].
With CC1=NN(c2nc(-c3ccc(C#N)cc3)cs2)C(=O)C1 the AC50 [1] was 12.6 µM [rising, partial curve, poor fit].
For O=C1C(Cl)=C(Nc2ccccc2O)C(=O)N1c1ccccc1, the AC50 [1] was 0.112 µM [falling, full curve, poor fit].
With O=C(/C=C/c1ccccc1)CC(O)(c1ccccc1)C(F)(F)C(F)F (stereo unspecified) the AC50 [1] was 25.9 µM [falling, partial curve, poor fit].
For Cc1cc(C)c(NC(=O)CNC(=O)COC(=O)C2=COCCO2)c(C)c1, the AC50 [1] was 18.4 µM [rising, single point].
For COc1ccccc1CN(C)C(=O)c1sccc1-c1ccccc1, the AC50 [1] was 25.1 µM [falling, single point].
With CCc1ccc(C(=O)CSc2n[nH]c(C)n2)cc1 the AC50 [1] was 35.5 µM [falling, single point].
For O=C(CNC(=O)c1ccc([N+](=O)[O-])cc1)c1ccccc1, the AC50 [1] was 15.8 µM [falling, partial curve, poor fit].
With CCOc1cc(N2CCOCC2)c(OCC)cc1NC(=O)COC(=O)[C@H](Cc1c[nH]c2ccccc12)NC(C)=O the AC50 [1] was 3.26 µM [rising, partial curve, poor fit].
For C=CCNC(=S)N1CCc2c([nH]c3ccccc23)C1C (stereo unspecified), the AC50 [1] was 12.6 µM [falling, partial curve].
In the case of CCOc1ccc(Nc2nc(CC(=O)OC)cc(=O)[nH]2)cc1, the AC50 [1] is reported as 29.1 µM [rising, single point].
With COc1ccccc1/C=N\Nc1ccccc1[N+](=O)[O-] the AC50 [1] was 7.08 µM [rising, partial curve, poor fit].
For C=CCOc1ccc(S(C)(=O)=O)cc1, the AC50 [1] was 35.5 µM [rising, single point].
In the case of COc1ccc(Nc2nc(Nc3ccc(OC)cc3)nc(-n3[nH]c(=O)c(C)c3C)n2)cc1, the AC50 [1] is reported as 3.98 µM [falling, full curve, poor fit].
With COc1cccc(-c2c3c([nH]c(=O)c2C#N)CCc2cc(OC)ccc2-3)c1 the AC50 [1] was 0.112 µM [rising, full curve, poor fit].
With O=C(O)c1ccc(Nc2cnc3ccccc3n2)cc1 the AC50 [1] was 0.447 µM [falling, full curve].
In the case of Cc1n[nH]c(C)c1CCc1nc2c3ccccc3nc(SCC(=O)Nc3ccc(F)cc3)n2n1, the AC50 [1] is reported as 0.112 µM [rising, full curve, poor fit].
In the case of COc1cc2c(cc1NC(=S)NC(=O)c1c(OC)cccc1OC)oc1ccccc12, the AC50 [1] is reported as 4.11 µM [rising, full curve].
For O=C(CCc1ccccc1)Nc1cccnc1Cl, the AC50 [1] was 2.82 µM [rising, single point].
In the case of CCc1cccc(CC)c1NC(=S)NCCc1ccc(O)c(O)c1, the AC50 [1] is reported as 12.6 µM [falling, partial curve].
In the case of Cc1cccc(C)c1OCc1n[nH]c(=S)n1-c1ccccc1, the AC50 [1] is reported as 35.5 µM [rising, single point] and the AC50 [2] is reported as 35.5 µM [falling, single point].
In the case of COc1ccc(C(=O)Nc2ccc(C)cn2)c(OC)c1, the AC50 [1] is reported as 1.03 µM [falling, full curve, poor fit].
With COc1ccc(CN(C)C(=O)c2cnc(OC)cc2C(F)(F)F)c(OC)c1 the AC50 [1] was 7.08 µM [falling, partial curve].
With Cc1c(C(=O)NNC(=O)c2csc(N3CCOCC3)n2)cccc1[N+](=O)[O-] the AC50 [1] was 16.4 µM [rising, single point].
In the case of CCN(CC)c1ccc(/C=N/OC(C)C(=O)Nc2ccc(C)cc2)cc1 (stereo unspecified), the AC50 [1] is reported as 14.6 µM [rising, partial curve, poor fit].
With CN(C)S(=O)(=O)c1ccc(Cl)c(NC(=O)COC(=O)[C@@H]2CCCN2C(=O)c2cccs2)c1 the AC50 [1] was 15.8 µM [rising, single point].
In the case of O=C(NC(=S)Nc1cc([N+](=O)[O-])ccc1Cl)c1ccccc1, the AC50 [1] is reported as 0.146 µM [falling, full curve, poor fit].
In the case of Cc1ccc(-c2nnn(CC(=O)N(CC3CCCO3)C(C(=O)NCC3CCCO3)c3ccc(F)cc3)n2)o1 (stereo unspecified), the AC50 [1] is reported as 6.51 µM [rising, partial curve].
For O=c1c2ccccc2[nH]c(=S)n1CCCN1CCN(C2CCCCC2)CC1, the AC50 [1] was 29.1 µM [rising, single point].
With CCOC(=O)N1CCC(n2c(SCC(=O)NCCc3ccc(S(N)(=O)=O)cc3)nc3ccccc3c2=O)CC1 the AC50 [1] was 25.1 µM [falling, single point].
With Cc1ccc(C(=S)NCS(=O)(=O)c2ccc(C)cc2)cc1 the AC50 [2] was 15.8 µM [falling, single point].
With CCCC(=O)C1=C(c2ccc(C)cc2)N(C(=O)CCC)n2cnnc2S1 the AC50 [2] was 25.1 µM [falling, single point].
In the case of Cc1ccc(S(=O)(=O)N2CCCC2C(=O)n2nc(C)cc2C)cc1 (stereo unspecified), the AC50 [1] is reported as 0.731 µM [rising, full curve, poor fit].
For Cc1ccnc(NS(=O)(=O)c2ccc(NC(=O)CSc3nc(-c4ccccc4)cc(=O)[nH]3)cc2)n1, the AC50 [1] was 3.55 µM [falling, full curve].
With C/C(=C\c1ccc(C(=O)O)cc1)c1ccc2c(c1)C(C)(C)CCC2(C)C the AC50 [1] was 20.6 µM [falling, single point].
With O=C(NN=C1CCCC1)c1cc(Br)ccc1O the AC50 [1] was 1.26 µM [falling, full curve].
In the case of C/C(=N\NS(=O)(=O)c1ccc(Br)cc1)c1ccncc1, the AC50 [1] is reported as 14.1 µM [falling, single point].
In the case of CCCCNc1nc2sc3c(c2c(=O)n1-c1cccc(Cl)c1)CCN(C)C3, the AC50 [1] is reported as 3.55 µM [rising, single point].
In the case of CC1CCCN(c2ccc(C(=O)NCc3cccs3)cn2)C1 (stereo unspecified), the AC50 [1] is reported as 20.6 µM [falling, single point].
For OCCNCCNCc1ccccc1OCc1ccccc1, the AC50 [1] was 12.6 µM [falling, single point].
In the case of CCOc1nc(C)nc(NC(=O)NS(=O)(=O)c2ccccc2Cl)n1, the AC50 [1] is reported as 0.82 µM [rising, full curve].
In the case of COc1ccc(CCNC(=S)NCCc2c[nH]c3ccccc23)cc1, the AC50 [1] is reported as 11.2 µM [falling, single point].
In the case of Cc1cc(C)nc(NC(=NCCc2c[nH]c3ccccc23)NC(=O)Nc2cccc([N+](=O)[O-])c2)n1, the AC50 [1] is reported as 6.51 µM [rising, single point].
In the case of O=S(=O)(NCc1ccc(Cl)cc1Cl)c1cccs1, the AC50 [1] is reported as 17.8 µM [rising, single point].
For N/C(=N\N=C\c1ccc([N+](=O)[O-])cc1)c1nonc1N, the AC50 [1] was 0.112 µM [rising, full curve, poor fit].
In the case of CCSC1=NSC2=NC(=O)/C(=C\c3coc4ccccc4c3=O)C(=N)N12, the AC50 [1] is reported as 2.91 µM [rising, partial curve].
With COc1cccc(C(=O)Oc2ccccc2/C=C\C(=O)c2cc3ccccc3o2)c1 the AC50 [1] was 0.164 µM [falling, full curve, poor fit].
With Cc1cc(NC(=O)COc2ccccc2)ccc1Cl the AC50 [1] was 1.26 µM [rising, partial curve].
With CC(C)(C)C1=CC(O)(c2ccccc2)C=C(C(C)(C)C)C1=O the AC50 [1] was 2.82 µM [rising, partial curve, poor fit].
